# According to PubChem BioAssay AID1487 (National Center for Advancing Translational Sciences (NCATS), 2009):
# Some of the results follow. The main result of the screen is listed elsewhere. These columns were measured beside it and carry no call. The list favours compounds with an active or inconclusive main result. Words in brackets tell the shape of the fitted curve; partial curves, single points and poor fits give uncertain potencies.
# Experiment: qHTS Assay for Modulators of Lamin A Splicing
# Conditions: HeLa LMNA splicing GFP/RFP minigene ratio, 48 h
# Outline: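 S3 HeLa cells stably expressing lamin A-EGFP splicing minigene plus DsRed2, 600 cells/well, 48 h compound exposure at 37C. Laser-scanning cytometry; analysed as GFP (500-530 nm)/RFP (575-640 nm) total intensity ratio; 0.5% DMSO vehicle.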
# [1] = measured here: RFP viability control channel
# [2] = measured here: GFP splicing reporter channel
Compound,AC50 [1],AC50 [2]
CC1Cc2cc(-c3csc(NC(=O)Cc4cccs4)n3)ccc2N1S(C)(=O)=O (stereo not drawn),"2 µM [rising, full curve]",–
FC(F)(F)c1cc(-c2cccs2)nc2nc(N3CCOCC3)sc12,"1.12 µM [falling, full curve, poor fit]","1.78 µM [falling, full curve]"
CCOc1ccc2nc3cc(N)ccc3c(N)c2c1,"0.00178 µM [rising, full curve, poor fit]","35.5 µM [rising, single point]"
NS(=O)(=O)c1ccc(CCNC(=S)Nc2ccccc2)cc1,"5.01 µM [falling, partial curve, poor fit]","5.01 µM [falling, partial curve, poor fit]"
Cc1ccc(S(=O)(=O)N2CCCC2C(=O)NC2CCCCC2)cc1 (stereo not drawn),"35.5 µM [rising, single point]",–
CC1=CC(=Nc2c(C)n(C)n(-c3ccccc3)c2=O)C=C(C)C1=O,"14.1 µM [rising, single point]",–
CCCC[N+](C)(C)CCC(=O)NC(C)(C)CS(=O)(=O)[O-],"25.1 µM [falling, partial curve, poor fit]",–
COc1cc(/C=C/C(=O)c2c(O)ccc3c(C)cc(=O)oc23)ccc1O,"25.1 µM [falling, single point]","22.4 µM [falling, single point]"
Cc1cc(C)nc(SC2=CS(=O)(=O)c3ccccc32)n1,"10 µM [falling, partial curve]","7.08 µM [falling, partial curve]"
O=C(N/N=C1\SCC(=O)N1CCc1ccccc1)c1cccs1,"1.26 µM [falling, full curve, poor fit]",–
O=C(Nc1nccs1)c1ccc(S(=O)(=O)NCC2CCCCC2)cc1,"2.51 µM [rising, full curve]",–
N#CCCn1nc(-c2ccc([N+](=O)[O-])cc2)cc1Nc1ccccc1NC(=O)C(F)(F)F,"10 µM [rising, partial curve, poor fit]",–
CCCCCc1ccc(-c2ccc(=O)[nH]n2)cc1,–,"14.1 µM [falling, single point]"
O=C(NC1CCCCC1)N(Cc1ccccc1)Cc1ccco1,"31.6 µM [rising, single point]",–
Cc1ccc(NC(=O)CS(=O)CC(=O)NC2CCN(Cc3ccccc3)CC2)c(C)c1 (stereo not drawn),–,"15.8 µM [rising, single point]"
CC(C)c1ccc(-c2noc(C3CCCN(S(C)(=O)=O)C3)n2)cc1 (stereo not drawn),"31.6 µM [rising, single point]",–
Clc1ccc(OCCSc2nnnn2C2CCCCC2)cc1,"35.5 µM [rising, single point]",–
O=C(COc1ccccc1-c1ccccc1)N/N=C/c1ccncc1,–,"14.1 µM [falling, single point]"

Compound,AC50 [1],AC50 [2]
COC(=O)C1=C(C(=O)OC)[C@@H]2N(C)c3ccc(OC)cc3[C@@]23C[C@@H](C(=O)OC)N(S(=O)(=O)c2c(C)noc2C)C3=N1,–,"0.158 µM [rising, single point]"
COc1ccc(NC(=S)NC(=O)/C=C/c2ccco2)cc1,"3.55 µM [rising, partial curve, poor fit]",–
O=C(CNC(c1ccccc1)c1ccccc1)Nc1ccccc1-c1ccccc1,"35.5 µM [rising, single point]",–
Cc1ccc(CCNC(=O)c2cnc3c(C)cccn3c2=O)cc1,"0.708 µM [falling, full curve, poor fit]","4.47 µM [falling, full curve, poor fit]"
COc1ccc(C(=O)/C(=C\c2ccco2)N2C=CC=CC2=C(C#N)C#N)cc1,"3.55 µM [falling, full curve]","2.51 µM [falling, full curve]"
CCCNc1ccc(S(=O)(=O)N(C(C)C)C(C)C)cn1,"0.316 µM [rising, full curve, poor fit]","0.316 µM [rising, full curve, poor fit]"
CC1CCCN(C(=O)c2ccc(COc3ccccc3Br)cc2)C1 (stereo not drawn),"31.6 µM [rising, single point]",–
Nc1nc(COc2ccc3ccccc3c2)cs1,–,"4.47 µM [rising, full curve, poor fit]"
Cc1ccn2c(Nc3ccccc3C)c(-c3ccncc3)nc2c1,"12.6 µM [rising, partial curve]",–
Cn1c(N)c(C(=O)COC(=O)c2cc(C3CC3)nc3ccccc23)c(=O)n(Cc2ccccc2)c1=O,"20 µM [rising, single point]","15.8 µM [rising, single point]"
CCCCNC(=O)CCCCCNS(=O)(=O)c1ccc(Br)cc1,–,"0.00355 µM [rising, full curve, poor fit]"
COc1ccc(OCc2nnc(SC(C)C(=O)Nc3nccs3)n2-c2ccccc2)cc1 (stereo not drawn),"12.6 µM [rising, single point]","8.91 µM [rising, partial curve, poor fit]"
O=C(c1cc(F)c(F)cc1Cl)N1CCN(c2ccc([N+](=O)[O-])c3ncccc23)CC1,"14.1 µM [rising, partial curve]","14.1 µM [rising, partial curve, poor fit]"
CCOc1ccc2nc(NCCNC(=O)C(C)(C)C)c(C)cc2c1,"35.5 µM [falling, partial curve, poor fit]",–
COc1ccc(N2CCN(C(CNC(=O)C(=O)NCC3CCCO3)c3ccco3)CC2)cc1 (stereo not drawn),"20 µM [rising, single point]",–
Cc1[nH]n(-c2ccccc2)c(=O)c1Sc1ccc(Cl)cc1,"31.6 µM [rising, single point]",–
CC(NC(=O)C(NC(=O)C(Cc1c[nH]c2ccccc12)NC(=O)OC(C)(C)C)C(C)C)C(N)=O (stereo not drawn),–,"35.5 µM [rising, partial curve, poor fit]"
Cc1ccc(C(=O)Nc2nc(=O)n(C(=O)CC(C)C)s2)cc1,"35.5 µM [falling, single point]","25.1 µM [falling, single point]"

# Quoted at random: two records from the list
Compound,AC50 [1],AC50 [2]
Cc1ccc(C(=O)Nc2nc(=O)n(C(=O)CC(C)C)s2)cc1,"35.5 µM [falling, single point]","25.1 µM [falling, single point]"
CC1CCCN(C(=O)c2ccc(COc3ccccc3Br)cc2)C1 (stereo not drawn),"31.6 µM [rising, single point]",–
